Reference: the supplement of paper PMC12823440, “Inhibitors supercharge kinase turnover through native proteolytic circuits” (Nature, 2025)
Some of the results follow. The calls rarely recur for the same compound in another form.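 Kinases were expressed as nanoluciferase fusions in K562 cells and luminescence was read every 4 h between 2 and 18 h as percent of control, DMSO set to 100% and a positive control to 0%. A time point counts as decreased when the signal drops significantly (2 sigma). The hit call is the authors' own, does not follow from the count of time points alone, and its rule is not shown.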

By UniProt entry, the sequences of proteins in these tests, tags left out. Where a name states a change or a piece, a line headed by the entry shows the natural chain unless it says otherwise.
UniProt O15530: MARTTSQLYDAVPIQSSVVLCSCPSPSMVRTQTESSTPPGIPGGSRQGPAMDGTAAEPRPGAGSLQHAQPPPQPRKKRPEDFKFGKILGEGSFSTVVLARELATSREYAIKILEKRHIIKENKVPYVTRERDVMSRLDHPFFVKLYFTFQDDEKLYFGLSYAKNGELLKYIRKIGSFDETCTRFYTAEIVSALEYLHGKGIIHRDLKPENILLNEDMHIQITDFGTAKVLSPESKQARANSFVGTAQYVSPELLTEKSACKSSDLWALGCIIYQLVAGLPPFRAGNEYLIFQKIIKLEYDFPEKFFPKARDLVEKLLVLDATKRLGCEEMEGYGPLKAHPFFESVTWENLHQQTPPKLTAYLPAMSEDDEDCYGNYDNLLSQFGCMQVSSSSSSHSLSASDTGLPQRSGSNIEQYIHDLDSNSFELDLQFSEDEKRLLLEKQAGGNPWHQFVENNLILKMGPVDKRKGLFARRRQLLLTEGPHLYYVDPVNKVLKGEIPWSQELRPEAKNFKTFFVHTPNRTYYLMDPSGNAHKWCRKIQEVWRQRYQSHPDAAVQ
UniProt P21802, whole entry, looked up: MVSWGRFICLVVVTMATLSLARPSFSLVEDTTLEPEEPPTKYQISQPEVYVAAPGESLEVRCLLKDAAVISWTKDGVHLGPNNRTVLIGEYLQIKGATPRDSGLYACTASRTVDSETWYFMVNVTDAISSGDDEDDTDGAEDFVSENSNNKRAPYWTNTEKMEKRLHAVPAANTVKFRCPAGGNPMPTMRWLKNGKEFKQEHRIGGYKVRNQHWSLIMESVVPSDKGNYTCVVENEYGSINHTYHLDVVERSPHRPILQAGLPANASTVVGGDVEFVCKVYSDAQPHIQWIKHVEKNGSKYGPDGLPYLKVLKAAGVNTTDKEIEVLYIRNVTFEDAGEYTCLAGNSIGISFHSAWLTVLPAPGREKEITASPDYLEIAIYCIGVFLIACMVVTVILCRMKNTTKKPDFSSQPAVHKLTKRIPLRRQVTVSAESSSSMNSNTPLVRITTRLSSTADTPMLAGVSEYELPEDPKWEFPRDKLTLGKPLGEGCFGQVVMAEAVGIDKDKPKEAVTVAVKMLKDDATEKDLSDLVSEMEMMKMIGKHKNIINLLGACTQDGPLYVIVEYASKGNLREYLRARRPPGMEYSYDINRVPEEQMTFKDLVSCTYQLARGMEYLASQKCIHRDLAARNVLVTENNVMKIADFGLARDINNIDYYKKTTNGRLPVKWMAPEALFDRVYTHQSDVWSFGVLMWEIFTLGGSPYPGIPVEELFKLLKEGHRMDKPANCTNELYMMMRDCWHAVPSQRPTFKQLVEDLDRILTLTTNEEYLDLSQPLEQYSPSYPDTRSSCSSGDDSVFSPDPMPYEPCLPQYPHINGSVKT
UniProt O96013: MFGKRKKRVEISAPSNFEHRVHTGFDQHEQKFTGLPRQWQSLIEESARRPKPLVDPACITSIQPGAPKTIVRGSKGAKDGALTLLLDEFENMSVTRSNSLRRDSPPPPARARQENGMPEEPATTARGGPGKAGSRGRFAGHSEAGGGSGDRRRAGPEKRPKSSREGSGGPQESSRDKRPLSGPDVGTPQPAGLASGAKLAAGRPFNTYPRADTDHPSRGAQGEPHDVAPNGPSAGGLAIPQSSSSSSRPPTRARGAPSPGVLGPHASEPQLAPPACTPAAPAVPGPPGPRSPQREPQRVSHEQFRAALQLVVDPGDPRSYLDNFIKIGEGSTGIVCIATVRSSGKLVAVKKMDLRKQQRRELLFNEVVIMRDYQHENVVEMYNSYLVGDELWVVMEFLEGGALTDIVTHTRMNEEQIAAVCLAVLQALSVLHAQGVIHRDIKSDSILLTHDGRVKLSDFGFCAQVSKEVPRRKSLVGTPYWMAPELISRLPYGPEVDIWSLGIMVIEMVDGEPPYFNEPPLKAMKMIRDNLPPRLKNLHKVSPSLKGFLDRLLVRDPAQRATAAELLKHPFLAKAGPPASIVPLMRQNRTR
UniProt P22607, whole entry, looked up: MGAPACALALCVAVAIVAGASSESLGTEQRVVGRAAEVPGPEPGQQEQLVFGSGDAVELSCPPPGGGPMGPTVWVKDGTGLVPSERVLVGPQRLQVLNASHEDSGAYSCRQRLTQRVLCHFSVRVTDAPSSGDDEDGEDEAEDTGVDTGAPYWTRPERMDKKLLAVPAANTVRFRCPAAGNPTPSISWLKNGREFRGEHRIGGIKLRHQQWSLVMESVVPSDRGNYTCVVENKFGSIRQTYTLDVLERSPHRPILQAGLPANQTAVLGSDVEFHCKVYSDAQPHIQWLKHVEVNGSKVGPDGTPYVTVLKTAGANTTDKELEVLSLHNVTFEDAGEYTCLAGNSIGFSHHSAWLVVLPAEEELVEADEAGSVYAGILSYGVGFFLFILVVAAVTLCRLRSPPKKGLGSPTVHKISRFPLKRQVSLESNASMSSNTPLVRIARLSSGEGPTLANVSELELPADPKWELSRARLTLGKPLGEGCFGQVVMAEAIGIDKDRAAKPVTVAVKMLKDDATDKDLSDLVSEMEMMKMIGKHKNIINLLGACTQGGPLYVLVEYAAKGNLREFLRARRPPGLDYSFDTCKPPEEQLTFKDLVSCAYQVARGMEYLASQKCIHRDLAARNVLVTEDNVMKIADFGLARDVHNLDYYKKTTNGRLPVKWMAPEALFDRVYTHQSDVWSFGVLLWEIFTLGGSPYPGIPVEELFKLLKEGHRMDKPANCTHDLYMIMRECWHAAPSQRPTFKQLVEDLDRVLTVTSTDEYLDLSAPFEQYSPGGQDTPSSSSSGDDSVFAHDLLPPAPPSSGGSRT
UniProt P53350, whole entry: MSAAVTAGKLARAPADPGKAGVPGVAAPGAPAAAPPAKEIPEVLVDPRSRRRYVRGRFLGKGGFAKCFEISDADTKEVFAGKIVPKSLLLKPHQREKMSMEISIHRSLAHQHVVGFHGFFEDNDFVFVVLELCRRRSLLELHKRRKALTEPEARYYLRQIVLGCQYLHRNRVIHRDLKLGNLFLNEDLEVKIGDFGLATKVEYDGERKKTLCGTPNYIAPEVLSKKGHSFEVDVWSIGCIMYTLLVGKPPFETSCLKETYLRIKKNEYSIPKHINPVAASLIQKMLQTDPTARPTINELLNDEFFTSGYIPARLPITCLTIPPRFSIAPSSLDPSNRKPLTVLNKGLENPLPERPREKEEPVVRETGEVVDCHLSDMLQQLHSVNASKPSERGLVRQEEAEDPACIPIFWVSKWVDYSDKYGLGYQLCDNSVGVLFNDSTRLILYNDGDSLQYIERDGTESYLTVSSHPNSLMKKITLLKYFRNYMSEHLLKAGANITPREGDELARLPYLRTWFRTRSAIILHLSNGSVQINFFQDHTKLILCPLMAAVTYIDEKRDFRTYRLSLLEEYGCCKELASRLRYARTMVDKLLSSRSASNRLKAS
UniProt P06239: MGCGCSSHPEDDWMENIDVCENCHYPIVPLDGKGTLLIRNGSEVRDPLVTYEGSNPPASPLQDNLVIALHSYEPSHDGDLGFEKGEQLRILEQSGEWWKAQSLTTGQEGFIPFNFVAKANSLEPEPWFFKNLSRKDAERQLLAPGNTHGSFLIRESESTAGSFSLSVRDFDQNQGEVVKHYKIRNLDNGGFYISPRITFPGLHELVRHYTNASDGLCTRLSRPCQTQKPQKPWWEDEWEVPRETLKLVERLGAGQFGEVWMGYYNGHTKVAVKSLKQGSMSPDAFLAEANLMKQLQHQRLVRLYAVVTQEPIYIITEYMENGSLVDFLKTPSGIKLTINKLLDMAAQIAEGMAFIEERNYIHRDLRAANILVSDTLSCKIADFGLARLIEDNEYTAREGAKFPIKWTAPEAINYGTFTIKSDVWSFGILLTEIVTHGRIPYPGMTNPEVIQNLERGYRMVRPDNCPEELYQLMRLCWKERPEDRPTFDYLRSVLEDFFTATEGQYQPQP
UniProt P23458: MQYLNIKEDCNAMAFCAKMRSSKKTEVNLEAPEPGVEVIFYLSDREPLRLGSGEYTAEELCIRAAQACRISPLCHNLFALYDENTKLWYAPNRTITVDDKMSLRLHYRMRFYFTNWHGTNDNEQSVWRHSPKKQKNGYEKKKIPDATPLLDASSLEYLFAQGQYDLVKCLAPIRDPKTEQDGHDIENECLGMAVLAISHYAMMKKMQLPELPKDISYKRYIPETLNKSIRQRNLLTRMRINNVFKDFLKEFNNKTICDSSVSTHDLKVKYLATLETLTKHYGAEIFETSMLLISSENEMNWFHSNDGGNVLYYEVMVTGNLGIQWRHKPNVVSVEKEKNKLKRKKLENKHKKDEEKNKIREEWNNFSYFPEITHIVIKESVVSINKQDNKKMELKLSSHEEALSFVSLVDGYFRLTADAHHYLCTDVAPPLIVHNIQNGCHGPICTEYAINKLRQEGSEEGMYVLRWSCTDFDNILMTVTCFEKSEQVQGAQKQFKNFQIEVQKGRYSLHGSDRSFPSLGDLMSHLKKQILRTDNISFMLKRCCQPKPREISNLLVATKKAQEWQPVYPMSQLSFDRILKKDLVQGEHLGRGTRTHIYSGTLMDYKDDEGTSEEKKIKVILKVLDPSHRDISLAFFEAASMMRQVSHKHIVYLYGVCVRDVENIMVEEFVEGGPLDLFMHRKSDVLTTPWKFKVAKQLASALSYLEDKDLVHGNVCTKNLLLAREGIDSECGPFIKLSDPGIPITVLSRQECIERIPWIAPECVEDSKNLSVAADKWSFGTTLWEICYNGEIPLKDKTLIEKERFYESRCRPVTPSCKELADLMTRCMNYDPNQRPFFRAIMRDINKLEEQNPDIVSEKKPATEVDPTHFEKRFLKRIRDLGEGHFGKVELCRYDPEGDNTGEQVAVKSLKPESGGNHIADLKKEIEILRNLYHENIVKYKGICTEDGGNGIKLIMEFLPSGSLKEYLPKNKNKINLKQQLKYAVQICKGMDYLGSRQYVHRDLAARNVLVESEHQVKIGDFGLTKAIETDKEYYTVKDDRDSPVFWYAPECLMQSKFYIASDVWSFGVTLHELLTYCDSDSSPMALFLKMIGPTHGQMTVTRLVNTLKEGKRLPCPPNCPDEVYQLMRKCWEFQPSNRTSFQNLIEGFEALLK
UniProt P53671: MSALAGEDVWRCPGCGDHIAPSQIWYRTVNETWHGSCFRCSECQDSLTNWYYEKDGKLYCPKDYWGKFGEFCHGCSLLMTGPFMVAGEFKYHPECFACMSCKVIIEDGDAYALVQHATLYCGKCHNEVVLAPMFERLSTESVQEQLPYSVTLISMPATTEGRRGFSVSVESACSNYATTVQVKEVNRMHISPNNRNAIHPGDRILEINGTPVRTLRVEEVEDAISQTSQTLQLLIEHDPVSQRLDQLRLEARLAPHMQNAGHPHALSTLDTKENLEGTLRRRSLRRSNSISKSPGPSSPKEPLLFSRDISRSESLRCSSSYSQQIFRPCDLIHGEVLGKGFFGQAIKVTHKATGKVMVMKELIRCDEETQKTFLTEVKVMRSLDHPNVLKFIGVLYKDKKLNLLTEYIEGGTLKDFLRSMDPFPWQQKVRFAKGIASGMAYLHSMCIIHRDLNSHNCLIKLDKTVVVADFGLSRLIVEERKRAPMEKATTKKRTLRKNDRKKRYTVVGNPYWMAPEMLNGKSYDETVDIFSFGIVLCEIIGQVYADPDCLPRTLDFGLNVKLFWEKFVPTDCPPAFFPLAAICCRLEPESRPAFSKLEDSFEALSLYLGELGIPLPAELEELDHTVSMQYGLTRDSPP
UniProt P43403: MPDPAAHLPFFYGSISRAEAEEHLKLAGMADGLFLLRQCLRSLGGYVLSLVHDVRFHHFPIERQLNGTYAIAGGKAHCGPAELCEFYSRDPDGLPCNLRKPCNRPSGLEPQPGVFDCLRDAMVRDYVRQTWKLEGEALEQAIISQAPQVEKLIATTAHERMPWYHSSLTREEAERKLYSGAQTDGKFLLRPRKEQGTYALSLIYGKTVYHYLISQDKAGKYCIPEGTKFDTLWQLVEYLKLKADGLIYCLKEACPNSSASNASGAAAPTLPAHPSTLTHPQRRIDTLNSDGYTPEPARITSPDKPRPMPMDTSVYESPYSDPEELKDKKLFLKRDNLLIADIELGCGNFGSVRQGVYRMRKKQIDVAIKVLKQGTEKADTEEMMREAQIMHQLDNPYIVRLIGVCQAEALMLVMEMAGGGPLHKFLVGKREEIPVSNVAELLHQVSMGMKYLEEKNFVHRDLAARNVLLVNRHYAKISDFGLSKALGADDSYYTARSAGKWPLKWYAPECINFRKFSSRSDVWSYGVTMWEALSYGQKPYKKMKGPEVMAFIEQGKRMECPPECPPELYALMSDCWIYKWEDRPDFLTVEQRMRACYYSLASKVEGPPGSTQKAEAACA

compound: N#CCNC(=O)c1ccc(-c2ccnc(Nc3ccc(N4CCOCC4)cc3)n2)cc1 [Momelotinib sulfate]; experiment: number of time points (of 5) at which kinase-Nluc abundance scored as decreased, DMSO-normalised (count); higher = more persistent destabilization; details: 10 µM; K562; 2-18 h

Question: How did the “number of time points” value turn out when CAMK2G (UniProt Q13555) was run?
Answer: Its value is 0.

Question: PDPK1 (UniProt O15530) was tested. Which “number of time points” value did it give?
Answer: Its value is 1.

Question: Which “number of time points” value does the source give for LYN (UniProt P07948) here?
Answer: Its value is 0.

Question: Which “number of time points” value does the source give for EGFR_T790M (UniProt P00533) here?
Answer: Its value is 0.

Question: With LIMK1 (UniProt P53667) as the target, how does the “number of time points” value read?
Answer: The value was 0.

Question: AURKA (UniProt O14965) was tested. Which “number of time points” value did it give?
Answer: Its value is 0.

Question: For HER2 (UniProt P04626), which “number of time points” value is on record?
Answer: Its value is 0.

Question: For “RET_M918T (clone: RET_mut) (UniProt P07949)”, which “number of time points” value is on record?
Answer: The value was 0.

Question: For AURKB (UniProt Q96GD4), which “number of time points” value is on record?
Answer: The value was 0.

Question: Which “number of time points” value does the source give for SYK (UniProt P43405) here?
Answer: The value was 0.

Question: How did the “number of time points” value turn out when FGFR2 (UniProt P21802) was run?
Answer: Its value is 0.

Question: For CAMK2A (UniProt Q9UQM7), which “number of time points” value is on record?
Answer: Its value is 0.

Question: With CSF1R (UniProt P07333) as the target, how does the “number of time points” value read?
Answer: Its value is 0.

Question: PAK4 (UniProt O96013) was tested. Which “number of time points” value did it give?
Answer: Its value is 0.

Question: FGFR3 (UniProt P22607) was tested. Which “number of time points” value did it give?
Answer: The value was 0.

Question: PLK1 (UniProt P53350) was tested. Which “number of time points” value did it give?
Answer: The value was 0.

Question: With SRC (UniProt P12931) as the target, how does the “number of time points” value read?
Answer: The value was 0.

Question: For LMTK2 (UniProt Q8IWU2), which “number of time points” value is on record?
Answer: Its value is 0.

Question: How did the “number of time points” value turn out when LCK (UniProt P06239) was run?
Answer: Its value is 0.

Question: With DYRK1B (UniProt Q9Y463) as the target, how does the “number of time points” value read?
Answer: Its value is 0.

Question: “RAF1_S257L (clone: RAF1_mut) (UniProt P04049)” was tested. Which “number of time points” value did it give?
Answer: Its value is 0.

Question: Which “number of time points” value does the source give for EGFR_L718V (UniProt P00533) here?
Answer: Its value is 0.

Question: Which “number of time points” value does the source give for JAK1 (UniProt P23458) here?
Answer: The value was 0.

Question: BRAF_V600E was tested. Which “number of time points” value did it give?
Answer: The value was 0.

Question: LIMK2 (UniProt P53671) was tested. Which “number of time points” value did it give?
Answer: The value was 0.

Question: For BRAF (UniProt P15056), which “number of time points” value is on record?
Answer: Its value is 0.

Question: Which “number of time points” value does the source give for ZAP70 (UniProt P43403) here?
Answer: The value was 0.

Question: AKT1 (UniProt P31749) was tested. Which “number of time points” value did it give?
Answer: Its value is 0.

Question: How did the “number of time points” value turn out when EGFR_L858R (UniProt P00533) was run?
Answer: The value was 0.
